No constants are given. Whether binding was seen depends on the method and setting. Some results given as binding are weak or reduced against the parent protein; the word gives no strength.
How the values were obtained:
GDF11 = target: T1, GDF11 (UniProt O95390); assay: SPR (Biacore), ligand amine-coupled on CM5 chip
T1 sequence (looked up): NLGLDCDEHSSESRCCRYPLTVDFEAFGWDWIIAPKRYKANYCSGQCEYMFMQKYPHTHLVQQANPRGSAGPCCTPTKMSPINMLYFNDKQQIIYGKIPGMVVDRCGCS

The chains behind the UniProt entries cited, without tags or fusion partners. Where a name states a change or a piece, a line headed by the entry shows the natural chain unless it says otherwise.
UniProt P27037: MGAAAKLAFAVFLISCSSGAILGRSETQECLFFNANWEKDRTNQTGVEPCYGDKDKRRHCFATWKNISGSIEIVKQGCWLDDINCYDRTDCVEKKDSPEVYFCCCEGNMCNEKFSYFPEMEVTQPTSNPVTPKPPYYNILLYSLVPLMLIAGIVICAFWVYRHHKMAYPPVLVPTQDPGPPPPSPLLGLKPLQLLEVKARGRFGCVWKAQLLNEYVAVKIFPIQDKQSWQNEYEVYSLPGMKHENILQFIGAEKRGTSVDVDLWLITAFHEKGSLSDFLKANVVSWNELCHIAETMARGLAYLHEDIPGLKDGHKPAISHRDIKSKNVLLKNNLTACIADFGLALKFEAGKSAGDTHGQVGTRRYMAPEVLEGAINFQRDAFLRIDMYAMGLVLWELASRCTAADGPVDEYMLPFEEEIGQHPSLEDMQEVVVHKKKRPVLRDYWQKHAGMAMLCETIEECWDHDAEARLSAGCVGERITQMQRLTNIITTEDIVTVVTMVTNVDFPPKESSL

activin B = target: T2, activin B (UniProt P09529); assay: similar binding assay (Biacore)
T2 sequence (looked up): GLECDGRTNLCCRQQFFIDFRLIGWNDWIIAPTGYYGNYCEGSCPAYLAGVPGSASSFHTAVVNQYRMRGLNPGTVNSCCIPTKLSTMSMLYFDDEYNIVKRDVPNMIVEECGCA

GDF8 = target: T3, GDF8 (UniProt O14793); assay: similar binding assay (Biacore)
T3 sequence (looked up): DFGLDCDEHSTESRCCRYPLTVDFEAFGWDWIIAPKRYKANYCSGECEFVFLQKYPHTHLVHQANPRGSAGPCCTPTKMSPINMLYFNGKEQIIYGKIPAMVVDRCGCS

BMP10 = target: T4, BMP10 (UniProt O95393); assay: similar binding assay (Biacore)
T4 sequence (looked up): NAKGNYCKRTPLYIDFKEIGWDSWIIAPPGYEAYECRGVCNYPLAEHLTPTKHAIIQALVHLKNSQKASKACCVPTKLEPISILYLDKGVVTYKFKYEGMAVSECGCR

Measured: binding

ActRIIA-mFc (from UniProt P27037 21-135) (Fc fusion)
binds: GDF11 | activin B | GDF8 | BMP10
